The results in this text go back to article PMC5749160, “Disruption of an RNA-binding hinge region abolishes LHP1-mediated epigenetic repression”.

This series has as its target T1, GST-LHP1 KR9A R166A,K167A,R168A,K169A,R170A,K171A,K180A,K181A,K182A (Arabidopsis thaliana (Col-0 cDNA)) (UniProt Q946J8).
T1 sequence (looked up, limits assumed): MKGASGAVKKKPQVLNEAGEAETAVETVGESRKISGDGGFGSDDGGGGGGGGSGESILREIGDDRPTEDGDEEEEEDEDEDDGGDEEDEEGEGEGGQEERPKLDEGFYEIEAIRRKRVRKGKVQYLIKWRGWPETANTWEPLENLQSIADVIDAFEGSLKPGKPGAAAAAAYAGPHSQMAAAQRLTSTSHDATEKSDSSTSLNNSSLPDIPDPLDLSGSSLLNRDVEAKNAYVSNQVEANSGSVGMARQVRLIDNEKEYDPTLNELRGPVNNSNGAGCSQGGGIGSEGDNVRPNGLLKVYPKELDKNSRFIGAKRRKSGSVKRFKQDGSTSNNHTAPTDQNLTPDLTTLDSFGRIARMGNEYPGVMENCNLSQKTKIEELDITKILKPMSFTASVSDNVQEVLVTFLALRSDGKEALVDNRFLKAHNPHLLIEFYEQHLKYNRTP
Kind of series: EMSA. Particulars: EMSA: 20 mM HEPES-KOH pH 7.5, 100 mM KCl, 0.05% NP-40, 10 nM Cy5 probe (1 uL of 100 nM + 9 uL protein), 30 min room temperature; 1.6% TBE-agarose gel; recombinant protein; protein details: N-terminal GST (pGEX-4T-1); label: 5' Cy5.

Construct, isoform or probe ends are uncertain for at least one entry. The comparison behind a weaker result is the experiment's own reference, which may not be listed here. Tags and fusion partners may be left off the protein sequences shown.

“CUCCUCCGGCGAUAAGUACGCCUUUUCCUUACCUGGGUUU [FLC 40-nt ssRNA]”: the binding result is listed as “binds more weakly”.
